Laboratory results reported in the supplement of paper PMC9233669.
This sample is rich in variants without activity.

Assays:
biotinyl-Leu-oxazolone = assay: self-aminoacylation, catalytic enhancement (BLO) (fold over background); higher = more active; k-Seq, kA / k0A0; sequences stand for … in GGGAAUGGAUCCACAUCUACGAAUUC…UUCACUGCAGACUUGACGAAGCUG
Outline: (§1)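 Mutagenized RNA pools with a 21-nt variable region (0.43 μM) were reacted with each biotinyl-aminoacyl-oxazolone at 2–1250 μM for 90 minutes at room temperature, in 50 μL HEPES/NaCl/KCl/MgCl2/CaCl2 buffer containing 5% acetonitrile at pH 6.9–7.0. RNA captured on streptavidin was quantified by triplicate qPCR and by Illumina sequencing. The fraction reacted for each sequence was fit to a pseudo-first-order model with bootstrapping, and catalytic enhancement is the median kA divided by the uncatalyzed rate, taken as the low-activity peak of a bimodal Gaussian fit.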

biotinyl-Met-oxazolone = assay: self-aminoacylation, catalytic enhancement (BMO) (fold over background); higher = more active; k-Seq, kA / k0A0; sequences stand for … in GGGAAUGGAUCCACAUCUACGAAUUC…UUCACUGCAGACUUGACGAAGCUG
Outline: as §1

biotinyl-Ile-oxazolone = assay: self-aminoacylation, catalytic enhancement (BIO) (fold over background); higher = more active; k-Seq, kA / k0A0; sequences stand for … in GGGAAUGGAUCCACAUCUACGAAUUC…UUCACUGCAGACUUGACGAAGCUG
Outline: as §1

biotinyl-Val-oxazolone = assay: self-aminoacylation, catalytic enhancement (BVO) (fold over background); higher = more active; k-Seq, kA / k0A0; sequences stand for … in GGGAAUGGAUCCACAUCUACGAAUUC…UUCACUGCAGACUUGACGAAGCUG
Outline: as §1

Sequence | self-aminoacylation (biotinyl-Leu-oxazolone) | self-aminoacylation (biotinyl-Met-oxazolone) | self-aminoacylation (biotinyl-Ile-oxazolone) | self-aminoacylation (biotinyl-Val-oxazolone)
AAACUUCAAACAAUCGGUCUG [Fam1A.1 aminoacylation ribozyme variant] | 1.65 | 1.42 | 1.28 | 1.14
AAGUAUGCUAAUAGUCACAAG [Fam3.1 aminoacylation ribozyme variant] | 1.41 | 1.3 | 1.62 | 1.59
AAGUCUACUAAUAGUCGCAAG [Fam3.1 aminoacylation ribozyme variant] | 1.1 | 1.48 | 1.82 | 1.3
AAGUUGGCUAACAGUCGCAAG [Fam3.1 aminoacylation ribozyme variant] | 1.91 | 1.95 |  | 1.56
AAGUUGGCUGAUAGUCGCAAG [Fam3.1 aminoacylation ribozyme variant] | 1.55 | 1.49 | 1.8 | 1.7
AAGUUUACUUAUAGUCGCAAG [Fam3.1 aminoacylation ribozyme variant] | 1.39 | 1.92 | 1.86 | 1.58
AAGUUUCCUAAGAGUCGCAAG [Fam3.1 aminoacylation ribozyme variant] | 1.24 | 1.04 | 1.29 | 1.31
AAGUUUGAUUAUAGUCGCAAG [Fam3.1 aminoacylation ribozyme variant] | 1.89 | 1.93 | 1.89 | 1.48
AAGUUUGCAAAUAGUCGCCAG [Fam3.1 aminoacylation ribozyme variant] | 0.952 | 0.899 | 1.29 | 0.995
AAGUUUGCGAAUAGUCGCGAG [Fam3.1 aminoacylation ribozyme variant] | 1.75 | 1.92 | 1.44 | 1.39
AAGUUUGCUAACAGUCGUAAG [Fam3.1 aminoacylation ribozyme variant] | 0.828 | 1.17 | 1.02 | 1.07
AAGUUUGCUAAUAGCCGCAAG [Fam3.1 aminoacylation ribozyme variant] | 0.698 | 0.734 | 0.815 | 0.756
AAGUUUGGUCAUAGUCGCAAG [Fam3.1 aminoacylation ribozyme variant] | 1.8 | 1.53 | 1.87 | 1.78
AAGUUUUCUAAUAGUCGGAAG [Fam3.1 aminoacylation ribozyme variant] | 1.14 | 1.25 | 1.44 | 1.31
ACACACUUCAAGCAAUCGGUC [Fam1B.1 aminoacylation ribozyme variant] | 1.34 | 1.09 | 1.19 | 1.35
ACAUACUUCAAGCAAUCGGUC [Fam1B.1 aminoacylation ribozyme variant] | 1.34 | 1.17 | 1.25 | 1.22
AGGUGUGCUAAUAGUCGCAAG [Fam3.1 aminoacylation ribozyme variant] | 1.43 | 1.64 | 1.54 | 1.2
AUACACCUACGUCAUCGGGUG [Fam2.2 aminoacylation ribozyme variant] | 5.2 | 4.6 | 3.12 | 2.49
AUACUUCAAACAAUCGGGCUG [Fam1A.1 aminoacylation ribozyme variant] | 1.42 | 1.46 | 1.31 | 1.54
AUACUUCAACCAAUCGGUCUG [Fam1A.1 aminoacylation ribozyme variant] | 0.994 | 1.04 | 0.826 | 0.821
AUAUUUCAAACAAUCGGUCUG [Fam1A.1 aminoacylation ribozyme variant] | 0.891 | 0.844 | 0.897 | 0.834
AUGCACCUCGGUCAUCGGGUG [Fam2.2 aminoacylation ribozyme variant] | 6.47 | 5.38 | 4.1 | 3.86
AUUCAUCUAGGUCAUCAGGUG [Fam2.2 aminoacylation ribozyme variant] | 1.86 |  | 1.59 | 1.81
AUUGACCUAGCUCAUCGGGUG [Fam2.2 aminoacylation ribozyme variant] | 1.76 |  | 1.69 | 1.94
CCACGCUUCAAGCAAUCGGCC [Fam1B.1 aminoacylation ribozyme variant] | 1.33 | 1.52 | 1.4 | 
GCACACAUCAAGCAAUCGGUC [Fam1B.1 aminoacylation ribozyme variant] | 1.73 | 1.48 |  | 1.84
